Measurements reported in PubChem BioAssay AID1259282 (Sanger Institute, 2017).

Screen: 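Kinase knock-downs that work with targeted colorectal cancer drugs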 (primary screen)
Cell system: DIFI human colorectal cancer cell line
Knock-down reagent: siRNA pool against human genes
Challenge: anchor drug at a mild dose (BYL719 1 µM, cetuximab 5 µg/ml, trametinib 10 nM) or DMSO vehicle; exposure time not given
Measured: 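Viability relative to non-targeting pool wells, replicate mean, in DMSO or low-dose BYL719, cetuximab or trametinib; robust z-score without drug; synergy score per drug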
Scale: robust z-score, knock-down alone: higher = more viable cells than typical knock-down
Call rule: 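Essential when the robust z-score of the knock-down without drug falls below -3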
Calls: active = essential (knock-down alone, z below -3); inactive = not essential
The whole screen tested 794 reagents; shown is a part drawn at random. 11 of them (1.4%) were called active. 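Calls flag knock-downs that lower viability without drug; drug synergy appears only in the synergy scores; exposure time not stated.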 Not all columns of the deposit are shown. The record does not give: the amount of reagent, the time to read-out.

MAPK3 scored robust z-score, knock-down alone -1.2; inactive.
For NRAS, the values are robust z-score, knock-down alone 0.715; inactive.
After knock-down of ACO1, the screen gave robust z-score, knock-down alone -0.00939; inactive.
For NTN4 the deposit lists robust z-score, knock-down alone -0.7; inactive.
After knock-down of TSSK1B, the record shows robust z-score, knock-down alone -0.249; inactive.
After knock-down of NME2 the results were robust z-score, knock-down alone 0.715; inactive.
For LMTK3, the values are robust z-score, knock-down alone -2.45; inactive.
After knock-down of RPS6KA4, the screen gave robust z-score, knock-down alone 0.46; inactive.
For PTGS1, the entry reads robust z-score, knock-down alone 0.386; inactive.
PAK6 showed robust z-score, knock-down alone -0.972; inactive.
Depletion of ATM gave: robust z-score, knock-down alone 0.148; inactive.
After knock-down of MAP3K6, the screen gave robust z-score, knock-down alone 0.715; inactive.
Against MAPK11, the values are robust z-score, knock-down alone 0.715; inactive.
CDKN1B scored robust z-score, knock-down alone 0.696; inactive.
MKNK1 gave robust z-score, knock-down alone 0.715; inactive.
Depletion of EIF2AK2 resulted in: robust z-score, knock-down alone 0.715; inactive.
Depletion of WEE1 gave: robust z-score, knock-down alone -2.52; inactive.
For NR4A2, the entry reads robust z-score, knock-down alone -1.99; inactive.
With knock-down of ERBB4, the screen gave robust z-score, knock-down alone 0.715; inactive.
Depletion of SLK came out at: robust z-score, knock-down alone 0.69; inactive.
Depletion of CIT gave: robust z-score, knock-down alone -3.86; active.
After knock-down of CKM, the record shows robust z-score, knock-down alone 0.715; inactive.
After knock-down of PCBP1, the screen gave robust z-score, knock-down alone 0.572; inactive.
Depletion of DGKK came out at: robust z-score, knock-down alone 0.548; inactive.
With knock-down of ARID1A the results were robust z-score, knock-down alone 0.715; inactive.
Silencing of ABL1 came out at: robust z-score, knock-down alone 0.226; inactive.
CLSPN gave robust z-score, knock-down alone -1.95; inactive.
After knock-down of CDK10, the record shows robust z-score, knock-down alone -0.385; inactive.

Not a retest: an excerpt of the list.
ABL1: robust z-score, knock-down alone = 0.226; outcome = inactive
CLSPN: robust z-score, knock-down alone = -1.95; outcome = inactive
